No constants are given. Whether binding was seen depends on the method and setting. In cells and extracts the contact can be indirect. For part of these data: Binding can be weak; no strength is given.
Key:
[1] = biological target: tau (mouse (endogenous in hippocampus)) (UniProt P10637); assay: condition: only contralateral hippocampus, without LFS; co-IP; as a1, but P2 fraction of the unstimulated contralateral (control) hippocampus of the same aged mice, without LFS
[2] = biological target: tau (mouse (endogenous in hippocampus)) (UniProt P10637); assay: co-IP; tau oligomer antibody T22 coupled to NHS-activated magnetic beads; P2 fraction of the LFS-stimulated (ipsilateral) hippocampus of aged mice in HSB with 0.5% Triton X-100, overnight at 4 °C; SDS-PAGE and western blot
[3] = biological target: tau (mouse (endogenous in hippocampus)) (UniProt P10637); assay: co-IP; as a1, but P2 fraction of the unstimulated contralateral (control) hippocampus of the same aged mice, without LFS

Protein sequences, listed by entry. Tags and fused reporters are not part of them. Lines headed by an entry give the natural chain unless they say otherwise; changes in a name come on top.
UniProt P10637: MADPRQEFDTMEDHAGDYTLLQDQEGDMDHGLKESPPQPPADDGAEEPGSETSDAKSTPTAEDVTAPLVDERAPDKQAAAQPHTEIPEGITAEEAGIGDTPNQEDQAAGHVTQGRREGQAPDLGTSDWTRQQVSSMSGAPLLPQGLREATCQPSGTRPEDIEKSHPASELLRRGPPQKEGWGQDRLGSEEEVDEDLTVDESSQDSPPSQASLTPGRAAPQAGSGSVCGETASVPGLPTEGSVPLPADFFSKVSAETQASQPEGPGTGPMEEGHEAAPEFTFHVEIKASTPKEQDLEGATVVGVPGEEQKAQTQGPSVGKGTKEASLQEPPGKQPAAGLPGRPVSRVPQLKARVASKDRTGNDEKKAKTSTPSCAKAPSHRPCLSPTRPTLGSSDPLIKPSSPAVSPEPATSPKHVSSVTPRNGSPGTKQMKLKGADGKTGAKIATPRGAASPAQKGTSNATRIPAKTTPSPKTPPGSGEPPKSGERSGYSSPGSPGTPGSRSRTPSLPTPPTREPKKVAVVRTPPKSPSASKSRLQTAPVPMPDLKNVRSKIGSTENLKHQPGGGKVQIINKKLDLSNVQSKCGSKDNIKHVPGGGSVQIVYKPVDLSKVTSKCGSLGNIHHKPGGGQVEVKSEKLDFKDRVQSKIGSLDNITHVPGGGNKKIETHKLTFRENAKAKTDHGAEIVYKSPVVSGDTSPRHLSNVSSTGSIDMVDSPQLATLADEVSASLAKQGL

B1: NDP52 (protein, UniProt A2A6M5 1-331)
chain: MDQCPIPTLLEHGNFSQVLFNNVEKFYAPRGDIMCYYTLTEKFIPRRKDWIGIFKVGWKTTQEYYTFMWAPLPKDQNKDSATQQEIQFKAYYLPKDVERYQFCYVDEDGLVRGTSVPFQFCPDPDEDIMVVINKEKVEEMEQLSEELYQQNQELKDKYADLHEQLQRKQVALEATQRVNKTLEHKVEEKASWEKEKASWEEEKASWEEEKASWEEEKASWEEEKASWEEEKASWEEEKASWEEEKASWEEEKASWEEEKASWEEEKASWEEEKASWEEEKASWEEEKASWEKEKASWEEEKASWEKEKAPWEVEKAPWKEVKAYWWNDLHR
- binding [1]: no binding
- binding [2]: binds
- binding [3]: binds weakly

From article PMC5586024
